Reference: patent publication US7531506B2 (Pharma Mar, S.A., priority 2001, dated 2009)

Assay: general procedure: Fmoc solid-phase peptide synthesis; 2-chlorotrityl chloride polystyrene resin

Substance	step yield (late stage modification step) [% yield]	crude HPLC purity (whole synthesis, HPLC (Nucleosil C18)) [%]
Cyclo[D-Phe-Tzn-Thr(rPr)-Ser(rPr)-Ile-Ala-Pro]	33	
H-D-Phe(S)-Ser-Thr(rPr)-Ser(rPr)-Ile-Ala-Pro-OH		>63
